# Measurements taken from paper PMC9563079.
# Sequences of proteins named here, by UniProt entry; tags and fusion partners are left off.
# UniProt P35222: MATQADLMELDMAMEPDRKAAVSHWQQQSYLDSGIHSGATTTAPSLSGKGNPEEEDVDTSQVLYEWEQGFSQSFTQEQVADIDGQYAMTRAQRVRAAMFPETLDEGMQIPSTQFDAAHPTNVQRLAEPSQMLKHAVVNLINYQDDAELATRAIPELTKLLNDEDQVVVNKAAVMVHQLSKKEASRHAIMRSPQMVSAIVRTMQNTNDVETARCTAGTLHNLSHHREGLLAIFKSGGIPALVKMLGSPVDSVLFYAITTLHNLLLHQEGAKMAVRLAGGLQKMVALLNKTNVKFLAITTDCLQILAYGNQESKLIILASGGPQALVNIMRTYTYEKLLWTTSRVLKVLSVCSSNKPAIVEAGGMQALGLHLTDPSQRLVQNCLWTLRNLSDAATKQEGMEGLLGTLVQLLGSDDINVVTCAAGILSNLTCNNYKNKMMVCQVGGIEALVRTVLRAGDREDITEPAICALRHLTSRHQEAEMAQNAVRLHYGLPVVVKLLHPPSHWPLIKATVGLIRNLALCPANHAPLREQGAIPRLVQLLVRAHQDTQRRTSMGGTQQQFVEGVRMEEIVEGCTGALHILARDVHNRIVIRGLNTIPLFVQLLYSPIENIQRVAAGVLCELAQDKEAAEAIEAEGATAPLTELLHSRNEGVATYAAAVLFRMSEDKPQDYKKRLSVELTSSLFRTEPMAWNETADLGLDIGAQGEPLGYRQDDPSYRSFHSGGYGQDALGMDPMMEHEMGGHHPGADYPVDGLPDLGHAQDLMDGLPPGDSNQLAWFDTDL
# These are yes or no findings as the source states them, for the method shown. In cells and extracts the contact can be indirect. These calls come from enrichment with a bait or labelling near it, and not all partners need be listed.
# Target: T1, CUEDC2 (CUE domain containing 2), over-expressed in HEK-293FT cells (UniProt Q9H467)
# T1 sequence: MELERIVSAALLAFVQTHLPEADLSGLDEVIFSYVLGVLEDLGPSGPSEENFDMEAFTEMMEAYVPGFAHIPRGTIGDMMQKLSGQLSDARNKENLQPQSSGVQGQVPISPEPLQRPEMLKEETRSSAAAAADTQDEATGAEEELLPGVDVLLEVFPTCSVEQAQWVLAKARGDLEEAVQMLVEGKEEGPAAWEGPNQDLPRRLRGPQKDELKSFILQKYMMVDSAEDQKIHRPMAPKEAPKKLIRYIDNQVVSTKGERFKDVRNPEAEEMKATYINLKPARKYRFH
# Experiment: affinity purification with mass spectrometry; HEK-293FT cells transfected with CUEDC2 or a control plasmid; cell extracts immunoprecipitated with an anti-CUEDC2 antibody; LC-MS/MS
substance,measurement,value
"β-catenin, endogenous in HEK-293FT cells (from UniProt P35222 1-781)",binding,binds
